Laboratory results published in patent US20180297931A1.
No constants are given. Whether binding was seen depends on the method and setting. Some results given as binding are weak or reduced against the parent protein; the word gives no strength.

Biological target: T1, very long chain acyl-CoA dehydrogenase (VLCAD), mouse liver (mouse), P50544
T1 chain: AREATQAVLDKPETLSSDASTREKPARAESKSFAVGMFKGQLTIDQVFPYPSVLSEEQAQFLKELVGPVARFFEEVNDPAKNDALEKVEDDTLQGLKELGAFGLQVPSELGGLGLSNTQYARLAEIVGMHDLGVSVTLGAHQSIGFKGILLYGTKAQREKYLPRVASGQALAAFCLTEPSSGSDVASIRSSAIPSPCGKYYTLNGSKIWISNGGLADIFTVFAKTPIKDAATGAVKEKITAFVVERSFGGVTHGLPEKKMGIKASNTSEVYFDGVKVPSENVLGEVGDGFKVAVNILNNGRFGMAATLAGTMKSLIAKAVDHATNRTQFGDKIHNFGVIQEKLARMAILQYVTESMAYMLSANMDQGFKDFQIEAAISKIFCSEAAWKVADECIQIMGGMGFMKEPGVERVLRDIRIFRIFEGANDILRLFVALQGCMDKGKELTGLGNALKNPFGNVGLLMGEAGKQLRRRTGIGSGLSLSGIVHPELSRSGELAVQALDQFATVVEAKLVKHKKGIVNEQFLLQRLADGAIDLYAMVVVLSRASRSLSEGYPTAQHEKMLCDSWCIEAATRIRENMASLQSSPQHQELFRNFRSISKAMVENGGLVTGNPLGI
Test: native gel electrophoresis with Western blot, liver mitochondria fractions
Settings: remark: other sources report otherwise

B1: very long chain acyl-CoA dehydrogenase (VLCAD), mouse liver, P50544 42-656 (enzyme, UniProt P50544 42-656, looked up)
chain: T1 chain
- binding: binds
